{
  "source": "the supplement of paper PMC11546906",
  "tested_on": "Escherichia coli 42 (mcr-1-positive clinical isolate)",
  "assay": "OD600 after 24 h growth with compound plus colistin (absorbance units (OD600)); higher = more bacterial growth (less inhibition)",
  "conditions": "first compound 25 µM; colistin concentration 0.5 ug/mL; incubation time 24 h; 37 °C",
  "note": "Structures can show the parent of a compound that is named as a salt. The list shows a part of the results. Repeats in this data set agree poorly, so a single value says little.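 Screen of FDA-approved drugs, each combined with colistin at one-eighth of its MIC, against a multidrug-resistant mcr-1-positive clinical E. coli isolate; growth read as OD600 after 24 h. Bacteria without drug were the growth control and plain broth the blank. A combination counted as active when OD600 fell below 0.2.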",
  "data": [
    {"compound": "CC[C@@H]1C(=O)OC[C@@H]1Cc1cncn1C", "note": "[Pilocarpine nitrate] + CCC(C)CCCC(=O)N[C@@H](CCN)C(=O)N[C@H](C(=O)N[C@@H](CCN)C(=O)N[C@H]1CCNC(=O)[C@H]([C@@H](C)O)NC(=O)[C@H](CCN)NC(=O)[C@H](CCN)NC(=O)[C@H](CC(C)C)NC(=O)[C@@H](CC(C)C)NC(=O)[C@H](CCN)NC1=O)[C@@H](C)O [colistin]", "values": [
      {"measurement": "OD600", "result": "inactive: 1.17"}
    ]},
    {"compound": "CC(CCc1ccccc1)NCC(O)c1ccc(O)c(C(N)=O)c1", "note": "(centres undefined) [Labetalol hydrochloride] + CCC(C)CCCC(=O)N[C@@H](CCN)C(=O)N[C@H](C(=O)N[C@@H](CCN)C(=O)N[C@H]1CCNC(=O)[C@H]([C@@H](C)O)NC(=O)[C@H](CCN)NC(=O)[C@H](CCN)NC(=O)[C@H](CC(C)C)NC(=O)[C@@H](CC(C)C)NC(=O)[C@H](CCN)NC1=O)[C@@H](C)O [colistin]", "values": [
      {"measurement": "OD600", "result": "inactive: 1.06"}
    ]},
    {"compound": "COCCCC/C(=N\\OCCN)c1ccc(C(F)(F)F)cc1", "note": "[Fluvoxamine maleate] + CCC(C)CCCC(=O)N[C@@H](CCN)C(=O)N[C@H](C(=O)N[C@@H](CCN)C(=O)N[C@H]1CCNC(=O)[C@H]([C@@H](C)O)NC(=O)[C@H](CCN)NC(=O)[C@H](CCN)NC(=O)[C@H](CC(C)C)NC(=O)[C@@H](CC(C)C)NC(=O)[C@H](CCN)NC1=O)[C@@H](C)O [colistin]", "values": [
      {"measurement": "OD600", "result": "inactive: 1.05"}
    ]},
    {"compound": "CC(C)OC(=O)C(C)(C)Oc1ccc(C(=O)c2ccc(Cl)cc2)cc1", "note": "[Fenofibrate] + CCC(C)CCCC(=O)N[C@@H](CCN)C(=O)N[C@H](C(=O)N[C@@H](CCN)C(=O)N[C@H]1CCNC(=O)[C@H]([C@@H](C)O)NC(=O)[C@H](CCN)NC(=O)[C@H](CCN)NC(=O)[C@H](CC(C)C)NC(=O)[C@@H](CC(C)C)NC(=O)[C@H](CCN)NC1=O)[C@@H](C)O [colistin]", "values": [
      {"measurement": "OD600", "result": "inactive: 0.884"}
    ]},
    {"compound": "COc1cc2nc(N(C)CCCNC(=O)C3CCCO3)nc(N)c2cc1OC", "note": "(centres undefined) [Alfuzosin hydrochloride] + CCC(C)CCCC(=O)N[C@@H](CCN)C(=O)N[C@H](C(=O)N[C@@H](CCN)C(=O)N[C@H]1CCNC(=O)[C@H]([C@@H](C)O)NC(=O)[C@H](CCN)NC(=O)[C@H](CCN)NC(=O)[C@H](CC(C)C)NC(=O)[C@@H](CC(C)C)NC(=O)[C@H](CCN)NC1=O)[C@@H](C)O [colistin]", "values": [
      {"measurement": "OD600", "result": "inactive: 1.09"}
    ]},
    {"compound": "CC(C)(CO)[C@@H](O)C(=O)NCCCO", "note": "[D-Panthenol] + CCC(C)CCCC(=O)N[C@@H](CCN)C(=O)N[C@H](C(=O)N[C@@H](CCN)C(=O)N[C@H]1CCNC(=O)[C@H]([C@@H](C)O)NC(=O)[C@H](CCN)NC(=O)[C@H](CCN)NC(=O)[C@H](CC(C)C)NC(=O)[C@@H](CC(C)C)NC(=O)[C@H](CCN)NC1=O)[C@@H](C)O [colistin]", "values": [
      {"measurement": "OD600", "result": "inactive: 1.1"}
    ]},
    {"compound": "CC(C)NCC(O)COc1ccc(CCOCC2CC2)cc1", "note": "(centres undefined) [Betaxolol hydrochloride] + CCC(C)CCCC(=O)N[C@@H](CCN)C(=O)N[C@H](C(=O)N[C@@H](CCN)C(=O)N[C@H]1CCNC(=O)[C@H]([C@@H](C)O)NC(=O)[C@H](CCN)NC(=O)[C@H](CCN)NC(=O)[C@H](CC(C)C)NC(=O)[C@@H](CC(C)C)NC(=O)[C@H](CCN)NC1=O)[C@@H](C)O [colistin]", "values": [
      {"measurement": "OD600", "result": "inactive: 1.1"}
    ]},
    {"compound": "C[C@]12CC[C@@H]3c4ccc(O)cc4C[C@@H](CCCCCCCCC[S+]([O-])CCCC(F)(F)C(F)(F)F)[C@H]3[C@@H]1CC[C@@H]2O", "note": "(some centres undefined) [Fulvestrant] + CCC(C)CCCC(=O)N[C@@H](CCN)C(=O)N[C@H](C(=O)N[C@@H](CCN)C(=O)N[C@H]1CCNC(=O)[C@H]([C@@H](C)O)NC(=O)[C@H](CCN)NC(=O)[C@H](CCN)NC(=O)[C@H](CC(C)C)NC(=O)[C@@H](CC(C)C)NC(=O)[C@H](CCN)NC1=O)[C@@H](C)O [colistin]", "values": [
      {"measurement": "OD600", "result": "inactive: 1.1"}
    ]},
    {"compound": "CCc1nc(N)nc(N)c1-c1ccc(Cl)cc1", "note": "[Pyrimethamine] + CCC(C)CCCC(=O)N[C@@H](CCN)C(=O)N[C@H](C(=O)N[C@@H](CCN)C(=O)N[C@H]1CCNC(=O)[C@H]([C@@H](C)O)NC(=O)[C@H](CCN)NC(=O)[C@H](CCN)NC(=O)[C@H](CC(C)C)NC(=O)[C@@H](CC(C)C)NC(=O)[C@H](CCN)NC1=O)[C@@H](C)O [colistin]", "values": [
      {"measurement": "OD600", "result": "inactive: 1.21"}
    ]}
  ]
}
